Test results published in PubChem BioAssay AID720504 (National Center for Advancing Translational Sciences (NCATS), 2013).
In all, about 360,000 compounds went through this assay and about 10,000 (2.8%) were called active. Inconclusive results, whose numbers are uncertain, are shown with a selection of clear calls. The call rests on the fitted dose curve; in most records, active means well fitted inhibition curve with a large enough effect; inconclusive means small, poorly fitted or top-dose-only effect; inactive means flat fitted curve, though single readings scatter. Potencies beside an inconclusive call are fits to weak or partial responses and may not hold up.

Sequences of proteins named here, by UniProt entry; tags and fusion partners are left off.
UniProt P53350, whole entry, looked up: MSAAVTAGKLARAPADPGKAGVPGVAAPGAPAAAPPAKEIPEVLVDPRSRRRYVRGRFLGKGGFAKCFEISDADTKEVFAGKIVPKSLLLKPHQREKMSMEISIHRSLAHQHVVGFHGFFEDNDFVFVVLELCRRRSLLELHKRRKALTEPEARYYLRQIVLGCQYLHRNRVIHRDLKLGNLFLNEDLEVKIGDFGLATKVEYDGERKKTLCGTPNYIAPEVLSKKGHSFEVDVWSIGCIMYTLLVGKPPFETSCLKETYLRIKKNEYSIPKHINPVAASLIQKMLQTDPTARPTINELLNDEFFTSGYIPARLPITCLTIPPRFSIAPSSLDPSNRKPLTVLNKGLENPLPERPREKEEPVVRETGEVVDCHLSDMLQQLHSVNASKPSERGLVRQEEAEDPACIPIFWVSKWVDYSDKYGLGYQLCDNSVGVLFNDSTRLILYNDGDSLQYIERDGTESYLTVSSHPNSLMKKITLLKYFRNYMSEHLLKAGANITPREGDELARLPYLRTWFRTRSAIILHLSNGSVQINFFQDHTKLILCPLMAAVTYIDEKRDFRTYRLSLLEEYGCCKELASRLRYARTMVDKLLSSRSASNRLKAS

Biological target: Serine/threonine-protein kinase PLK1 (Homo sapiens) (UniProt P53350)
Assay: qHTS for Inhibitors of PLK1-PDB (polo-like kinase 1 - polo-box domain): Primary Screen; further: nearly all actives have a fitted effect of over 65% in size; on max response, negative = inhibition: series mostly up to about 57 µM
Conditions: Plk1 PBD binding of FITC phosphopeptide, fluorescence polarization
On the % scale 0 is the no-effect control and ±100 the full control effect; potency means the concentration at half of the fitted maximal effect.

Row | SMILES | Potency | max response, negative = inhibition
1 | CCc1nc2ccccc2n1CC(=O)N1CCN(Cc2ccccc2)CC1 | active: 21.2 µM | 
2 | O=C(CC(CC(=O)c1ccc(Cl)cc1)c1ccccc1C(=O)O)c1ccc(Cl)cc1 |  | inconclusive: -36.5% [inhibitor]
3 | COc1ccc2[nH]c(=O)c(CN(C3CCCCC3)C(c3nnnn3Cc3ccco3)C(C)C)cc2c1 (configuration not stated) | inconclusive: 21.2 µM [inhibitor, partial curve] | 
4 | COc1ccc(OCc2cc(C(=O)NCc3cccc(C)n3)no2)c(Cl)c1 |  | inactive: -4.63%
5 | COC(=O)c1ccc(CSc2nc3c(cnn3-c3ccc(C)c(C)c3)c(=O)[nH]2)o1 | active: 26.7 µM | 
6 | COc1cc(C(=S)N2CCOCC2)cc(OC)c1OC(=O)c1ccc(F)cc1 | active: 11.9 µM | 
7 | CCOC(=O)Cn1c2ccccc2c2nc3ccccc3nc21 | inconclusive: 29.9 µM [inhibitor, partial curve] | 
8 | O=C(c1ccc([N+](=O)[O-])cc1)N1CCN(C2=NS(=O)(=O)c3ccccc32)CC1 |  | inactive: 1.76%
9 | Cc1sc2nc(SCC(=O)NCCOCCO)nc(N)c2c1C | inconclusive: 21.2 µM [inhibitor, partial curve] | 
10 | Cc1nc2ccc(NS(=O)(=O)c3c(C)c(C)cc(C)c3C)cc2s1 | inconclusive: 21.2 µM [inhibitor, single point] | 
11 | O=C(/C=C\Nc1ccc2c(c1)OCO2)c1ccc2c(c1)OCO2 | active: 10.6 µM | 
12 | CC[n+]1c(/C=C/N(C)c2ccccc2)oc2ccc(F)cc21 | inconclusive: 33.6 µM [inhibitor, partial curve] | 
13 | CC1(O)CC(C)(C)C(C#N)C(=O)N1 (configuration not stated) |  | inactive: -5.74%
14 | O=C(/C=C/N1CCOCC1)c1cc2ccccc2o1 |  | inactive: -7.02%
15 | O=C1c2ccc([N+](=O)[O-])cc2C(=O)N1c1ccc(Cl)cn1 |  | inactive: -7.82%
16 | CC(C)(C)NC(=S)N/N=C/c1cc(Br)c(O)c(Br)c1 | inconclusive: 8.44 µM [inhibitor, single point] | 
17 | O=C(C(Br)=Cc1ccccc1)c1ccccc1 | inconclusive: 23.8 µM [inhibitor, partial curve] | 
18 | CC(C)c1cc[n+](-c2nc([O-])sc2C=O)cc1 | inconclusive: 23.8 µM [inhibitor, single point] | 
19 | C=C(C)Cn1c(SCC)nc2ccccc2c1=O |  | inactive: 1.4%
20 | CCC(C)[C@H](NS(=O)(=O)c1ccc(C)cc1)C(=O)N1CCC(C(=O)N2CCC(C(=O)OC)CC2)CC1 (some centres not stated) |  | inactive: -10.6%
21 | O=C(O)c1cc(-c2ccc(/C=C3\NC(=O)N(c4ccccc4)C3=O)o2)ccc1Cl | inconclusive: 18.9 µM [inhibitor, partial curve] | 
22 | O=S(=O)(NCc1ccccc1)c1ccc(S(=O)(=O)N2CCCC2)cc1 | active: 26.7 µM | 
23 | CCCc1[nH]nc2c1C(c1ccoc1)C(C#N)=C(N)O2 (configuration not stated) | inconclusive: 26.7 µM [inhibitor, single point] | 
24 | COC(=O)CCC(=O)OC1(C)C(=O)C2=CN(Cc3ccccc3)C(c3ccc(OC)cc3)=CC2=C(Br)C1=O (configuration not stated) | inconclusive: 13.4 µM [inhibitor, single point] | 

Four of the compounds above, field by field:
CC[n+]1c(/C=C/N(C)c2ccccc2)oc2ccc(F)cc21
  Potency: inconclusive: 33.6 µM [inhibitor, partial curve]
CC1(O)CC(C)(C)C(C#N)C(=O)N1 (configuration not stated)
  max response, negative = inhibition: inactive: -5.74%
O=C(/C=C/N1CCOCC1)c1cc2ccccc2o1
  max response, negative = inhibition: inactive: -7.02%
O=C1c2ccc([N+](=O)[O-])cc2C(=O)N1c1ccc(Cl)cn1
  max response, negative = inhibition: inactive: -7.82%

Additional structures follow.

Row | SMILES | Potency | max response, negative = inhibition
25 | CC1=Nc2ccccc2/C1=C\c1nc(-c2ccc(F)cc2)oc1O | inconclusive: 22.4 µM [inhibitor, single point] | 
26 | COc1ccc2cc(Br)ccc2c1CC(=O)NC1CC(C)(C)NC(C)(C)C1 |  | inactive: -7.12%
27 | CCOc1ccc(C2C(C(=O)Nc3ccccc3)=C(C)N=c3s/c(=C/c4cccc(OCC(=O)O)c4)c(=O)n32)cc1 (configuration not stated) | inconclusive: 21.2 µM [inhibitor, single point] | 
28 | Cc1sc(-n2c(C)cc(/C=N/n3cnnc3)c2C)c(C#N)c1C | active: 16.8 µM | 
29 | CSc1c(SCc2ccccc2)cnn(-c2ccccc2)c1=O | inconclusive: 26.7 µM [inhibitor, partial curve] | 
30 | C[N+](C)(C)C/C=C1/COCO1 | active: 3.36 µM | 
31 | CCOC(=O)C1=C(C)N(c2ccc(C)cc2)C(=O)/C1=C\c1ccc(O)c(OC)c1 |  | inactive: -10.8%
32 | NS(=O)(=O)c1ccc(CCNC(=O)C2CCN(S(=O)(=O)c3cnc[nH]3)CC2)cc1 | inconclusive: 21.2 µM [inhibitor, partial curve] | 
33 | N#CCSc1n[nH]c2nc3c(c(=O)n12)C1(CCCCC1)Cc1ccccc1-3 | inconclusive: 26.7 µM [inhibitor, single point] | 
34 | O=C(N/N=C/c1cccc(OC(=O)c2ccc([N+](=O)[O-])cc2)c1)c1cccnc1 | inconclusive: 37.7 µM [inhibitor, single point] | 
35 | O=S(=O)(CS(=O)(=O)Oc1ccccc1)Oc1ccccc1 | active: 21.2 µM | 
36 | S=C(NCCCN1CCOCC1)Nc1ccc(Cl)cc1Cl | inconclusive: 21.2 µM [inhibitor, single point] | 
37 | COc1ccc(NC(=O)Nc2c(SC)nsc2SC)cc1 | inconclusive: 21.2 µM [inhibitor, partial curve] | 
38 | Cc1ccc(C(=O)Nc2nc(=O)n(C(=O)c3ccccc3Cl)s2)cc1 | inconclusive: 37.7 µM [inhibitor, single point] | 
39 | Cc1cc(C)nc(SCCC(=O)N(C)C)n1 | inconclusive: 23.8 µM [inhibitor, partial curve] | 
40 | CCOc1cccc(/C=N/NC(=O)c2ccc3c(c2)OCCO3)c1O | inconclusive: 26.7 µM [inhibitor, single point] | 
41 | Cc1ccc(C(=O)NC(=S)Nc2ccc(S(=O)(=O)N3CCN(C)CC3)cc2)cc1 | inconclusive: 21.2 µM [inhibitor, partial curve] | 
42 | Cc1cccc(NC(=S)NCC23C=CC(O2)C2C(=O)N(c4ccc(Cl)cc4)C(=O)C23)c1 (configuration not stated) |  | inactive: -13.4%
43 | Cc1cccc(N(C)c2cc(C)nc3nc(C)nn23)c1 | active: 29.9 µM | 
44 | CC(C(=O)NC1C=CS(=O)(=O)C1)N1C(=O)/C(=C/c2ccc(Cl)cc2)SC1=S (configuration not stated) | inconclusive: 26.7 µM [inhibitor, partial curve] | 
45 | NS(=O)(=O)c1cccc(NC(=S)NC(=O)c2cccc([N+](=O)[O-])c2)c1 | inconclusive: 23.8 µM [inhibitor, partial curve] | 
46 | COc1ccccc1NC(=O)/C(C#N)=C/c1cccnc1 |  | inactive: -4.53%
47 | CCOC(=O)C1Sc2[nH]c(=O)sc2C(c2ccc(Cl)cc2)C1C(=O)OCC (configuration not stated) | inconclusive: 23.8 µM [inhibitor, single point] | 
48 | COc1ccc(/C=C/C(=O)Nc2cc(C)on2)cc1 | active: 29.9 µM | 

Row | SMILES | Potency | max response, negative = inhibition
49 | C=C1CC2C(=O)N(Cc3cc(OC)ccc3OC)C(C(=O)OCC)(C(=O)OCC)C1N2C(=O)OC(C)(C)C (configuration not stated) |  | inactive: -11.3%
50 | CCC(=O)OC1(C)C(=O)C=C2C=C(CCCC(=O)OC)OC=C2C1=O (configuration not stated) |  | inconclusive: -33% [inhibitor]
51 | Cn1c(/C=N/c2nc3ccccc3[nH]2)nc2ccccc21 | inconclusive: 11.9 µM [inhibitor, partial curve] | 
52 | Oc1oc(-c2ccccc2)nc1/C=N/c1ccccn1 |  | inactive: -4.71%
53 | Cc1ccc(S(=O)(=O)N2[C@@H](c3ccccc3)C(C(=O)O)=CC[C@H]2c2cccc(Cl)c2)cc1 | inconclusive: 37.7 µM [inhibitor, single point] | 
54 | Cc1ccc(C(=O)N/N=C(/CC(=O)c2cccs2)C(F)(F)F)cc1 | inconclusive: 29.9 µM [inhibitor, single point] | 
55 | CCn1c2ccccc2c2cc(NC(=O)c3cccc([N+](=O)[O-])c3C)ccc21 | inconclusive: 29.9 µM [inhibitor, single point] | 
56 | N#CC(C#N)=C1C(=O)N(CCN2CCOCC2)c2ccccc21 | inconclusive: 2.38 µM [inhibitor, full curve] | 
57 | Cc1ccc(NS(=O)(=O)c2ccc(Cl)s2)cc1S(=O)(=O)N(C)C |  | inconclusive: -35.7% [inhibitor]
58 | Cc1cccc(/C=N/n2c(COc3ccccc3)n[nH]c2=S)c1 | active: 23.8 µM | 
59 | Cc1ccc(NC(=O)c2ccccn2)c(Br)c1 | inconclusive: 26.7 µM [inhibitor, partial curve] | 
60 | Cc1ccc(N2C(S)=C(C#N)C(=O)NC2c2ccco2)cc1 (configuration not stated) |  | inactive: -28.1%
61 | Cc1occc1-c1n[nH]c(=S)n1C |  | inconclusive: -32.5% [inhibitor]
62 | CC1=NN(c2ccccc2)C(=O)/C1=C/c1cccs1 | active: 16.8 µM | 
63 | Cc1ccccc1NS(=O)(=O)c1cc(S(C)(=O)=O)ccc1Cl |  | inactive: -1.91%
64 | O=C(Cn1nnc(-c2ccccc2NC(=O)c2cccs2)n1)Nc1ccccc1 |  | inactive: -2.5%
65 | Cc1ccc(-c2nnc3n2N=C(c2ccc(Br)cc2)CS3)cc1 |  | inconclusive: -36.7% [inhibitor]
66 | O=C(Nc1nccs1)c1ccc(Cl)c(S(=O)(=O)N2CCOCC2)c1 |  | inactive: 1.76%
67 | CCN(C(=S)NC(=O)CCc1ccccc1)c1ccccc1 | inconclusive: 21.2 µM [inhibitor, partial curve] | 
68 | CCCCn1c(N)c(N(CCOC)C(=O)CSCc2ccc(Cl)c(Cl)c2)c(=O)[nH]c1=O |  | inactive: -18.6%
69 | C/C(N)=C(/C#N)C(=O)CSc1nc2cc(Cl)ccc2s1 | inconclusive: 21.2 µM [inhibitor, partial curve] | 
70 | COc1ccc(NC(=O)CSc2nnc(-c3ccccc3C)n2N)cc1 | active: 21.2 µM | 
71 | O=C(CCSC1=NCCCN1)c1ccc(F)cc1 | inconclusive: 1.5 µM [inhibitor, full curve] | 
72 | C=C(C)C(=O)Nc1cccc(C2=NOC3(C2)C[C@H](C(N)=O)N(C(=O)C(c2ccccc2)c2ccccc2)C3)c1 (some centres not stated) | inconclusive: 29.9 µM [inhibitor, partial curve] | 
